The supplement of paper PMC4604168 (melanoma cell lines)
This is one part of the list. Single values are uncertain, as repeats are few or missing.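 The apoptosis fraction was the count of cleaved-PARP antibody-stained nuclei relative to all DNA-stained nuclei, imaged in 1,536-well plates. Screening doses were set so most cells survived, and baseline and induced cleaved-PARP levels vary greatly across cell lines.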

What was measured:
Experiment in all cases: cleaved PARP positive nuclei fraction relative to DMSO control; melanoma cells; higher = more apoptosis
Settings in all cases: library dose: low library concentration; 72 h
MZ2-MEL = test system: MZ2-MEL
MeWo = test system: MeWo
RPMI7951 = test system: RPMI7951
RVH-421 = test system: RVH-421
SkMel28 = test system: SkMel28
SkMel2 = test system: SkMel2
SkMel30 = test system: SkMel30
SkMel5 = test system: SkMel5
UACC257 = test system: UACC257
UACC62 = test system: UACC62
WM115 = test system: WM115
WM1716 = test system: WM1716
WM1745 = test system: WM1745
WM3526 = test system: WM3526
WM3619 = test system: WM3619
WM451Lu = test system: WM451Lu

| SMILES | cleaved PARP positive nuclei fraction (MZ2-MEL) [%] | cleaved PARP positive nuclei fraction (MeWo) [%] | cleaved PARP positive nuclei fraction (RPMI7951) [%] | cleaved PARP positive nuclei fraction (RVH-421) [%] | cleaved PARP positive nuclei fraction (SkMel28) [%] | cleaved PARP positive nuclei fraction (SkMel2) [%] | cleaved PARP positive nuclei fraction (SkMel30) [%] | cleaved PARP positive nuclei fraction (SkMel5) [%] | cleaved PARP positive nuclei fraction (UACC257) [%] | cleaved PARP positive nuclei fraction (UACC62) [%] | cleaved PARP positive nuclei fraction (WM115) [%] | cleaved PARP positive nuclei fraction (WM1716) [%] | cleaved PARP positive nuclei fraction (WM1745) [%] | cleaved PARP positive nuclei fraction (WM3526) [%] | cleaved PARP positive nuclei fraction (WM3619) [%] | cleaved PARP positive nuclei fraction (WM451Lu) [%] |
| --- | --- | --- | --- | --- | --- | --- | --- | --- | --- | --- | --- | --- | --- | --- | --- | --- |
| O=C(O)[C@@H]1[O][Sb](=[O])([O][Sb]2(=[O])[O][C@H]([C@H](O)CO)[C@H](O)[C@H](C(=O)O)[O]2)[O][C@H]([C@H](O)CO)[C@@H]1O (stereo partly drawn) [stibogluconate] + CN(C)S(=O)(=O)c1ccc2c(c1)/C(=C/c1cc3c([nH]1)CCCC3)C(=O)N2 [SU6656] (first compound 2 µM, partner dose 0.4 µM) | 153 | 51.3 | 50.9 | 66.2 | 84.1 | 48.4 | 59 | 49.7 | 133 | 50.9 | 36.1 | 70.6 | 97.3 | 54 | 71.6 | 22.3 |
| O=C(O)[C@@H]1[O][Sb](=[O])([O][Sb]2(=[O])[O][C@H]([C@H](O)CO)[C@H](O)[C@H](C(=O)O)[O]2)[O][C@H]([C@H](O)CO)[C@@H]1O (stereo partly drawn) [stibogluconate] + COc1ccc(-c2ccc3c(N4CCOCC4)nc(N4C[C@@H](C)O[C@@H](C)C4)nc3n2)cc1CO [KU0063794] (first compound 2 µM, partner dose 0.02 µM) | 122 | 63.6 | 72.8 | 144 | 52.5 | 176 | 43.9 | 70.1 | 101 | 121 | 88.8 | 111 | 177 | 157 | 115 | 120 |
| CNC(=O)c1cc(Oc2ccc(NC(=O)Nc3ccc(Cl)c(C(F)(F)F)c3)cc2)ccn1 [sorafenib] + Cc1cc([N+](=O)[O-])ccc1NS(=O)(=O)c1cc(Cl)ccc1Cl [FH535] (first compound 0.4 µM, partner dose 1 µM) | 81.8 | 62.9 | 66.7 | 224 | 168 | 63.6 | 37.8 | 78.2 | 95.2 | 93.7 | 49.4 | 190 | 101 | 77.7 | 103 | 67.8 |
| CNC(=O)c1cc(Oc2ccc(NC(=O)Nc3ccc(Cl)c(C(F)(F)F)c3)cc2)ccn1 [sorafenib] + O=S(=O)(c1ccccc1)N(CC(F)(F)F)c1ccc(C(O)(C(F)(F)F)C(F)(F)F)cc1 [T0901317] (first compound 0.4 µM, partner dose 1.4 µM) | 81.8 | 58.8 | 27.8 | 307 | 151 | 79.1 | 53.4 | 76 | 150 | 177 | 41.4 | 123 | 86.3 | 85.6 | 68.3 | 77 |
| CN1CCN(c2ccc3nc(-c4c(N)c5c(F)cccc5[nH]c4=O)[nH]c3c2)CC1 [Dovitinib] + COc1cc(N2CCC(N3CCN(C)CC3)CC2)ccc1Nc1ncc(Cl)c(Nc2ccccc2S(=O)(=O)C(C)C)n1 [NVP-TAE684] (first compound 0.1 µM, partner dose 0.08 µM) | 120 | 36.3 | 94.2 | 167 | 151 | 95.7 | 75.9 | 99.7 | 213 | 179 | 86.8 | 92.3 | 141 | 85.9 | 100 | 171 |
| CN1CCN(c2ccc3nc(-c4c(N)c5c(F)cccc5[nH]c4=O)[nH]c3c2)CC1 [Dovitinib] + CO[C@@H]1[C@H](N(C)C(=O)c2ccccc2)C[C@H]2O[C@]1(C)n1c3ccccc3c3c4c(c5c6ccccc6n2c5c31)C(=O)NC4 [Midostaurin] (first compound 0.1 µM, partner dose 0.08 µM) | 41.7 | 162 | 278 | 84.6 | 81.4 | 74.8 | 71.1 | 19.8 | 43.1 | 103 | 97.5 | 80.5 | 105 | 40.3 | 80.5 | 121 |
| CCCS(=O)(=O)Nc1ccc(F)c(C(=O)c2c[nH]c3ncc(Cl)cc23)c1F + C[C@@H]1CCN(C(=O)CC#N)C[C@@H]1N(C)c1ncnc2[nH]ccc12 [CP690550] (first compound 0.08 µM, partner dose 1 µM) | 83.3 | 74.4 | 90.2 | 45.4 | 75.1 | 124 | 220 | 31.4 | 113 | 506 | 83.8 | 108 | 105 | 129 | 101 | 76.7 |
| CNC(=O)c1cc(Oc2ccc(NC(=O)Nc3ccc(Cl)c(C(F)(F)F)c3)cc2)ccn1 [sorafenib] + C[C@@H]1CCN(C(=O)CC#N)C[C@@H]1N(C)c1ncnc2[nH]ccc12 [CP690550] (first compound 0.4 µM, partner dose 1 µM) | 67.6 | 56.8 | 155 | 84.2 | 488 | 103 | 29.6 | 132 | 53.6 | 143 | 33.9 | 151 | 96.4 | 46.2 | 94 | 83.4 |
| Nc1ccn([C@@H]2O[C@H](CO)[C@@H](O)C2(F)F)c(=O)n1 [gemcitabine] + CC(C)(C)c1cnc(CSc2cnc(NC(=O)C3CCNCC3)s2)o1 [SNS-032] (first compound 0.0004 µM, partner dose 0.01 µM) | 92.8 | 90.4 | 127 | 47.8 | 93.5 | 98.8 | 30.4 | 36 | 119 | 79 | 58 | 61.4 | 125 | 53.8 | 109 | 58.5 |
| Nc1ccn([C@@H]2O[C@H](CO)[C@@H](O)C2(F)F)c(=O)n1 [gemcitabine] + O=c1cc(-c2cccc3c2Sc2ccccc2S3)oc(N2CCOCC2)c1 [KU55933] (first compound 0.0004 µM, partner dose 1 µM) | 179 | 135 | 35.5 | 132 | 81.6 | 159 | 168 | 202 | 101 | 51.6 | 39.5 | 30.1 | 221 | 134 | 130 | 36 |
| C=C(c1ccc(C(=O)O)cc1)c1cc2c(cc1C)C(C)(C)CCC2(C)C [Bexarotene] + CO[C@@H]1[C@H](N(C)C(=O)c2ccccc2)C[C@H]2O[C@]1(C)n1c3ccccc3c3c4c(c5c6ccccc6n2c5c31)C(=O)NC4 [Midostaurin] (first compound 2 µM, partner dose 0.08 µM) | 171 | 255 | 137 | 68.2 | 86.3 | 121 | 71.6 | 154 | 88.2 | 93.2 | 22 | 206 | 103 | 363 | 113 | 87.1 |
| CS(=O)(=O)CCNCc1ccc(-c2ccc3ncnc(Nc4ccc(OCc5cccc(F)c5)c(Cl)c4)c3c2)o1 [lapatinib] + Cn1cc(/C=C2\C(=O)Nc3cccnc32)c2ccccc21 [GW441756] (first compound 0.8 µM, partner dose 0.4 µM) | 234 | 122 | 74 | 132 | 138 | 32.2 | 57.2 | 104 | 298 | 86.2 | 107 | 25.4 | 86 | 23.2 | 74.6 | 109 |
| CNC(=O)c1cc(Oc2ccc(NC(=O)Nc3ccc(Cl)c(C(F)(F)F)c3)cc2)ccn1 [sorafenib] + c1cc(-c2cnn3cc(-c4ccc(OCCN5CCCCC5)cc4)cnc23)ccn1 [Dorsomorphin] (first compound 0.4 µM, partner dose 0.4 µM) | 89.5 | 36.1 | 89.9 | 179 | 134 | 87.3 | 58.1 | 426 | 110 | 101 | 54 | 78.8 | 98.1 | 50.7 | 71.1 | 64 |
| Nc1nc(F)nc2c1ncn2[C@@H]1O[C@H](CO)[C@@H](O)[C@@H]1O [fludarabine] + Cc1cc([N+](=O)[O-])ccc1NS(=O)(=O)c1cc(Cl)ccc1Cl [FH535] (first compound 0.2 µM, partner dose 1 µM) | 44.5 | 746 | 71.7 | 169 | 191 | 343 | 1890 | 219 | 104 | 102 | 28.3 | 54.5 | 97.7 | 388 | 104 | 127 |
| Nc1ccn([C@@H]2O[C@H](CO)[C@@H](O)C2(F)F)c(=O)n1 [gemcitabine] + O=S(=O)(c1ccccc1)N(CC(F)(F)F)c1ccc(C(O)(C(F)(F)F)C(F)(F)F)cc1 [T0901317] (first compound 0.0004 µM, partner dose 1.4 µM) | 199 | 22.7 | 78.7 | 172 | 36.2 | 133 | 42.4 | 161 | 41.5 | 122 | 43 | 12 | 143 | 95.5 | 132 | 508 |
| CN1CCN(c2ccc3nc(-c4c(N)c5c(F)cccc5[nH]c4=O)[nH]c3c2)CC1 [Dovitinib] + Oc1nc(-c2ccc(C(F)(F)F)cc2)nc2c1CSCC2 [XAV939] (first compound 0.1 µM, partner dose 2 µM) | 292 | 139 | 176 | 178 | 237 | 35.1 | 120 | 88.1 | 206 | 71 | 165 | 924 | 231 | 149 | 186 | 36.3 |
| CNC(=O)c1cc(Oc2ccc(NC(=O)Nc3ccc(Cl)c(C(F)(F)F)c3)cc2)ccn1 [sorafenib] + NC(=O)Nc1cc(-c2cccc(F)c2)sc1C(=O)N[C@H]1CCCNC1 [AZD7762] (first compound 0.4 µM, partner dose 0.02 µM) | 180 | 103 | 209 | 85 | 52.1 | 101 | 140 | 41.6 | 189 | 80.5 | 169 | 210 | 101 | 62.1 | 109 | 136 |
| Nc1nc(F)nc2c1ncn2[C@@H]1O[C@H](CO)[C@@H](O)[C@@H]1O [fludarabine] + C[C@@H]1CCN(C(=O)CC#N)C[C@@H]1N(C)c1ncnc2[nH]ccc12 [CP690550] (first compound 0.2 µM, partner dose 1 µM) | 126 | 664 | 66.7 | 97.2 | 68 | 783 | 357 | 659 | 132 | 91.7 | 103 | 116 | 90.1 | 110 | 97.7 | 239 |

Reprinted at random: two entries already listed.

| SMILES | cleaved PARP positive nuclei fraction (MZ2-MEL) [%] | cleaved PARP positive nuclei fraction (MeWo) [%] | cleaved PARP positive nuclei fraction (RPMI7951) [%] | cleaved PARP positive nuclei fraction (RVH-421) [%] | cleaved PARP positive nuclei fraction (SkMel28) [%] | cleaved PARP positive nuclei fraction (SkMel2) [%] | cleaved PARP positive nuclei fraction (SkMel30) [%] | cleaved PARP positive nuclei fraction (SkMel5) [%] | cleaved PARP positive nuclei fraction (UACC257) [%] | cleaved PARP positive nuclei fraction (UACC62) [%] | cleaved PARP positive nuclei fraction (WM115) [%] | cleaved PARP positive nuclei fraction (WM1716) [%] | cleaved PARP positive nuclei fraction (WM1745) [%] | cleaved PARP positive nuclei fraction (WM3526) [%] | cleaved PARP positive nuclei fraction (WM3619) [%] | cleaved PARP positive nuclei fraction (WM451Lu) [%] |
| --- | --- | --- | --- | --- | --- | --- | --- | --- | --- | --- | --- | --- | --- | --- | --- | --- |
| O=C(O)[C@@H]1[O][Sb](=[O])([O][Sb]2(=[O])[O][C@H]([C@H](O)CO)[C@H](O)[C@H](C(=O)O)[O]2)[O][C@H]([C@H](O)CO)[C@@H]1O (stereo partly drawn) [stibogluconate] + COc1ccc(-c2ccc3c(N4CCOCC4)nc(N4C[C@@H](C)O[C@@H](C)C4)nc3n2)cc1CO [KU0063794] (first compound 2 µM, partner dose 0.02 µM) | 122 | 63.6 | 72.8 | 144 | 52.5 | 176 | 43.9 | 70.1 | 101 | 121 | 88.8 | 111 | 177 | 157 | 115 | 120 |
| CNC(=O)c1cc(Oc2ccc(NC(=O)Nc3ccc(Cl)c(C(F)(F)F)c3)cc2)ccn1 [sorafenib] + O=S(=O)(c1ccccc1)N(CC(F)(F)F)c1ccc(C(O)(C(F)(F)F)C(F)(F)F)cc1 [T0901317] (first compound 0.4 µM, partner dose 1.4 µM) | 81.8 | 58.8 | 27.8 | 307 | 151 | 79.1 | 53.4 | 76 | 150 | 177 | 41.4 | 123 | 86.3 | 85.6 | 68.3 | 77 |
